Assay results as given in publication PMC5554444 (Cancer prevention research (Philadelphia, Pa.), 2011).

Test: Caco-2 cell monolayer permeability
Assay type: in vitro ADME
Conditions: human, Caco-2, pH 7.4

Q: With CC(C)NCC(O)COc1cccc2ccccc12 (stereo not shown) [Propranolol, reference compound] as the molecule, how does the Papp A→B at 10 µM read?
A: The Papp A→B at 10 µM was 27.6 ×10⁻⁶ cm/s.
